Reference: patent US20250186602A1, “HUMANIZED ANTIBODY THAT BONDS TO EVA1 PROTEIN OR FUNCTIONAL FRAGMENT THEREOF, ANTIBODY-DRUG CONJUGATE AND CHIMERIC ANTIGEN RECEPTOR” (CURED INC., priority 2022, published 2025)
Results are given in words; binding and its absence hold for the method and conditions named. Some binding calls cover weakened binding; strength is not graded here. Sequences can lack the tags named with a protein.

T1: hEva1-mouse Fc (human, UniProt O60487 27-154, limits assumed)
T1 construct: SPR analyte; the '1' is probably the first concentration (1 nM); also called hEva1-mouse Fc1 (so in the source); not shown: mouse Fc
T1 sequence: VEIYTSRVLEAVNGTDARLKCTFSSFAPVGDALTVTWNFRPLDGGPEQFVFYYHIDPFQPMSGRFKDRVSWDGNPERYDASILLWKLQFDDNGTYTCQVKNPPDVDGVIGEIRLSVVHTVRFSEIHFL


Target: T1, hEva1-mouse Fc
Assay: SPR (BiaCore T200), KD compared with the chimeric antibody

Binder	binding
humanized B2E5-48 antibody H2-L2 (antibody, human IgG1, V domains shown, Human IgG1 heavy chain and human kappa light chain vectors; made in HEK293T cells; also called B2E5-H2-L2) VH: QVQLVQSGAEVKKPGASVKVSCKASGYTFTNYWMHWVRQAPGQGLEWMGEINPTNGGTDYNEKFQGRVTMTVDKSTSTAYMELSSLRSEDTAVYYCTIYTTALDYWGQGTLVTVSS VL: EIVLTQSPATLSLSPGERATLSCRASSSVGYMYWYQQKPGQAPRPLIYVTSNRATGIPARFSGSGSGTDYTLTISSLEPEDFAVYYCQQWSSNPPTFGQGTKLEIK	binds
humanized B2E5-48 antibody H1-L4 (antibody, human IgG1, V domains shown, Human IgG1 heavy chain and human kappa light chain vectors; made in HEK293T cells) VH: QVQLVQSGAEVKKPGASVKVSCKASGYTFTNYWMHWVRQAPGQGLEWIGEINPTNGGTDYNEKFQGRVTLTVDKSSSTAYMELSSLRSEDTAVYYCTIYTTALDYWGQGTLVTVSS VL: DIQLTQSPSFLSASVGDRVTITCRASSSVGYMYWYQQKPGKAPKPLIYVTSNLASGVPSRFSGSGSGTEYTLTISSLQPEDFATYYCQQWSSNPPTFGQGTKLEIK	binds
humanized B2E5-48 antibody H2-L3 (antibody, human IgG1, V domains shown, Human IgG1 heavy chain and human kappa light chain vectors; made in HEK293T cells) VH: QVQLVQSGAEVKKPGASVKVSCKASGYTFTNYWMHWVRQAPGQGLEWMGEINPTNGGTDYNEKFQGRVTMTVDKSTSTAYMELSSLRSEDTAVYYCTIYTTALDYWGQGTLVTVSS VL: QIQLTQSPSFLSASVGDRVTITCRASSSVGYMYWYQQKPGKAPKPLIYVTSNLASGVPSRFSGSGSGTEYTLTISSLQPEDFATYYCQQWSSNPPTFGQGTKLEIK	binds
humanized B2E5-48 antibody H2-L4 (antibody, human IgG1, V domains shown, Human IgG1 heavy chain and human kappa light chain vectors; made in HEK293T cells) VH: QVQLVQSGAEVKKPGASVKVSCKASGYTFTNYWMHWVRQAPGQGLEWMGEINPTNGGTDYNEKFQGRVTMTVDKSTSTAYMELSSLRSEDTAVYYCTIYTTALDYWGQGTLVTVSS VL: DIQLTQSPSFLSASVGDRVTITCRASSSVGYMYWYQQKPGKAPKPLIYVTSNLASGVPSRFSGSGSGTEYTLTISSLQPEDFATYYCQQWSSNPPTFGQGTKLEIK	binds
